# Results deposited as PubChem BioAssay AID652259 (Drosophila RNAi Screening Center, 2013).
# Assay: 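Identify new Wingless signalling regulators in fly cells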 (primary screen)
# System: Drosophila clone 8 imaginal disc epithelial cells
# Knock-down reagent: long dsRNA against Drosophila genes
# Treatment: pathway stimulated by co-transfected Wingless expression plasmid
# Read-out: 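Dual luciferase reads per well after Wingless plasmid stimulation: reporter firefly light and Renilla control light; activity is firefly divided by Renilla, a ratio not deposited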
# Scale: firefly reporter light: higher = more Wg reporter light, before normalisation; Renilla control light: higher = more transfected or surviving cells
# Rule for the call: 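a knock-down is a candidate when at least two out of four statistical tests show it departing from its plate mean; one test alone signals a weak candidate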
# Calls: active = candidate regulator (raises or lowers reporter); inactive = not a candidate
# The deposit covers about 22,000 reagents; shown is a random part of those that have a named target and a result. Over the whole deposit, 233 (1.1%) got an active call. 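Light values are raw, unnormalised plate reads; the ratio scores behind the reporter calls were not deposited.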 Unmarked entries are inactive. The numbers tell different reagents against one gene apart. Names joined by + are all predicted targets of the reagent. No sequences are given here. Not given: the amount of reagent, the time to read-out, the dose of the treatment.
Target gene,reagent,"reporter change call, replicate 1","firefly reporter light, replicate 1","firefly reporter light, replicate 2","Renilla control light, replicate 1","Renilla control light, replicate 2"
tral (trailer hitch),1,,2280,,1189,
CG32944,1,,15056,,4843,
CG32944,2,,15672,,3812,
GstE14 (Glutathione S transferase E14),1,,7210,,2742,
ND2 (retired record),1,,19555,6.12e5,12819,2.79e5
CG14591,1,,3973,7584,1040,2859
CG5446,1,,2225,4443,1018,2374
CG3021,1,,18364,,10465,
CG3021,2,,22864,,15677,
CG42713,1,,19145,,8132,
CG4041,1,,22120,,10397,
Gyc88E (Guanylyl cyclase at 88E),1,,17835,,3584,
Cyp4e2 (Cytochrome P450 4e2),1,,5737,,2096,
CG33640,1,,20375,,9268,
cer (crammer),1,,5204,,2839,
Obp44a (Odorant-binding protein 44a),1,,3212,6884,714,2968
CG11975,1,,4760,,2188,
CG8520,1,,9312,,2629,
GlyRS (Glycyl-tRNA synthetase),1,,3008,,1383,
CG10903,1,,16966,,4899,
CG31344,1,,15792,,3161,
CG4409,1,,5286,,2307,
Jheh2 (Juvenile hormone epoxide hydrolase 2),1,,7270,,2265,
TTLL3A (Tubulin tyrosine ligase-like 3A),1,,1898,8775,889,2795
Acox57D-p (acyl-Coenzyme A oxidase at 57D proximal),1,,10828,,3341,

Continued, starting with the last 2 of the part before.
Target gene,reagent,"reporter change call, replicate 1","firefly reporter light, replicate 1","firefly reporter light, replicate 2","Renilla control light, replicate 1","Renilla control light, replicate 2"
TTLL3A (Tubulin tyrosine ligase-like 3A),1,,1898,8775,889,2795
Acox57D-p (acyl-Coenzyme A oxidase at 57D proximal),1,,10828,,3341,
CG7627,1,,9651,,3975,
CG34167,1,,18964,,9440,
CG11475,1,,7909,,2551,
sing + Axs,1,,20907,,8512,
Eip78C (Ecdysone-induced protein 78C),1,Wg reporter activity raised (active),15394,,1347,
Ctu1 (Cytosolic thiouridylase subunit 1),1,,2539,4745,855,2420
Gcna (Germ cell nuclear acidic peptidase),1,,2471,7943,1600,3642
CG42822,1,,3576,,1548,
"E(spl)mgamma-HLH (Enhancer of split mgamma, helix-loop-helix)",1,,27634,,22408,
uif (uninflatable),1,,22712,,8492,
uif (uninflatable),2,,3068,8073,1196,3136
unc-13-4A,1,,2208,9603,1403,4346
unc-13-4A,2,,1372,4956,950,2358
unc-13-4A,3,Wg reporter activity raised,5584,951,704,179
unc-13-4A,4,,1260,8902,858,3252
Pus7 (Pseudouridine synthase 7),1,,1885,5508,1210,2439
Dronc (Death regulator Nedd2-like caspase),1,,7683,,2027,
CG31954,1,,10727,,4912,
CG42346,1,,25376,,10311,
CG42346,2,,15128,,8021,
dyl (dusky-like),1,,5890,,2803,
dyl (dusky-like),2,,8096,,3594,
pea (peanuts),1,,11987,,1964,
ninaC (neither inactivation nor afterpotential C),1,,7100,,2988,
asRNA:CR30267 (antisense RNA:CR30267),1,,6.41e5,6.24e5,3.18e5,2.18e5
yellow-e2,1,,10432,,1729,
CG14223,1,,26213,,11004,
CG6729,1,,20348,,9420,
CG6729,2,,4.49e5,5.70e5,1.94e5,2.26e5
CG33521,1,,3250,,1507,
CG33521,2,,19692,,12253,
CG33521,3,,7.43e5,8.50e5,3.70e5,3.96e5
Dif (Dorsal-related immunity factor),1,,3516,9159,1624,4077
Ccp84Af,1,,10898,,2970,
CG9107,1,,11366,,4128,
Lar (Leukocyte-antigen-related-like),1,,15815,,10525,
Lar (Leukocyte-antigen-related-like),2,,8280,,2359,
Sf3b1 (Splicing factor 3b subunit 1),1,,3255,8070,729,2023
CG11663,1,,20660,,8048,
CG12617,1,,5475,10786,784,2571
al (aristaless),1,,3840,10763,1426,4144
Rrp6,1,,6412,,2555,
SWIP (Strumpellin and WASH-interacting protein),1,,18268,,7698,
Fa2h (Fatty acid 2-hydroxylase),1,,2982,4566,708,2118
Fa2h (Fatty acid 2-hydroxylase),2,,3521,6423,678,2308
CG11291,1,,4532,6213,676,2561
Mic26-27 (MICOS subunit 26/27),1,,3664,10761,1016,3289
Usp8 (Ubiquitin specific protease 8),1,,3824,10362,1661,2674
